These are yes or no findings as the source states them, for the method shown. Binding seen in cells or lysates may run through a third protein. A result given as binding can be weak or reduced; the word gives no strength.
Target: SURF4 with an N-terminal FLAG epitope tag (human) (UniProt O15260)
Test: co-IP; cells cross-linked with 2 mM dithiobis(succinimidyl propionate) in PBS with 2 mM CaCl2, lysed in 50 mM Tris-HCl, 150 mM NaCl, 2 mM CaCl2, 1.0% Triton X-100, pH 7.5; immunoprecipitation with M2-FLAG affinity gel or GFP-trap magnetic beads, 4°C overnight, 5 washes; immunoblot

Amino acid sequences for entries named in this document (tags omitted). A change or cut given only in a name is not applied to a line headed by its entry.
UniProt O15260: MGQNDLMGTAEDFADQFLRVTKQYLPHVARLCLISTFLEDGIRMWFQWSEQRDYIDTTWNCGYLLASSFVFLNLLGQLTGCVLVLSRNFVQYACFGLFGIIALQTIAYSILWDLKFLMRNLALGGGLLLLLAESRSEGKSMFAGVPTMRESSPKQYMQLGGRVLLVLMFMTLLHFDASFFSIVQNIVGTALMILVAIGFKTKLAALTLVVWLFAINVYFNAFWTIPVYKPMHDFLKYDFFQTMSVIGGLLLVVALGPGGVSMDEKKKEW
UniProt Q8NBP7: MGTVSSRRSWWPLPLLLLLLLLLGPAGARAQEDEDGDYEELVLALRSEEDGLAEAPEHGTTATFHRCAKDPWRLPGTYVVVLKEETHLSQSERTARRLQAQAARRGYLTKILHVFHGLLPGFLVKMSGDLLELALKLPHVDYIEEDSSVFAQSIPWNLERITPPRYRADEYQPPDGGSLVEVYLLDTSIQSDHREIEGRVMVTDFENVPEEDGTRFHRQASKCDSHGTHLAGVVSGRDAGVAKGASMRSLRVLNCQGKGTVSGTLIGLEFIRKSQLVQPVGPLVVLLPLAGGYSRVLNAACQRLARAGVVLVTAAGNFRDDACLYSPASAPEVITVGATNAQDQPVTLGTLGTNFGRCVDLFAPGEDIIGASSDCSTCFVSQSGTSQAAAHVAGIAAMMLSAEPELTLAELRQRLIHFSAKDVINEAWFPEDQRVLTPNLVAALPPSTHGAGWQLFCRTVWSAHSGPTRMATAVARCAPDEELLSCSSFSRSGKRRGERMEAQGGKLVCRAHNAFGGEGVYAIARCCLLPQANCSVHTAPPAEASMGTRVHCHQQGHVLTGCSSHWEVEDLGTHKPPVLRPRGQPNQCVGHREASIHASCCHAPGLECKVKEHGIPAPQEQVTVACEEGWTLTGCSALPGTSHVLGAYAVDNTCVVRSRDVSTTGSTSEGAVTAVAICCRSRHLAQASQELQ

- binding: binds
Substance: PCSK9-eGFP fusion (from UniProt Q8NBP7)

From publication PMC6156083
